Reference: article PMC4057713
Results are given in words; binding and its absence hold for the method and conditions named. In cells and extracts the contact can be indirect. Some entries that bind do so weakly or less than the wild type.

Chains of the proteins cited; added tags and fusions are not shown.
UniProt P03126: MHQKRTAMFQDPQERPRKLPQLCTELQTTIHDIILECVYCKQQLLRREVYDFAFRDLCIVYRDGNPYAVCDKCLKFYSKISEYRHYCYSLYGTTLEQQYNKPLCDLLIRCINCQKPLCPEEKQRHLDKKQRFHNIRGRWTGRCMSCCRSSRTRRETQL
UniProt Q16665: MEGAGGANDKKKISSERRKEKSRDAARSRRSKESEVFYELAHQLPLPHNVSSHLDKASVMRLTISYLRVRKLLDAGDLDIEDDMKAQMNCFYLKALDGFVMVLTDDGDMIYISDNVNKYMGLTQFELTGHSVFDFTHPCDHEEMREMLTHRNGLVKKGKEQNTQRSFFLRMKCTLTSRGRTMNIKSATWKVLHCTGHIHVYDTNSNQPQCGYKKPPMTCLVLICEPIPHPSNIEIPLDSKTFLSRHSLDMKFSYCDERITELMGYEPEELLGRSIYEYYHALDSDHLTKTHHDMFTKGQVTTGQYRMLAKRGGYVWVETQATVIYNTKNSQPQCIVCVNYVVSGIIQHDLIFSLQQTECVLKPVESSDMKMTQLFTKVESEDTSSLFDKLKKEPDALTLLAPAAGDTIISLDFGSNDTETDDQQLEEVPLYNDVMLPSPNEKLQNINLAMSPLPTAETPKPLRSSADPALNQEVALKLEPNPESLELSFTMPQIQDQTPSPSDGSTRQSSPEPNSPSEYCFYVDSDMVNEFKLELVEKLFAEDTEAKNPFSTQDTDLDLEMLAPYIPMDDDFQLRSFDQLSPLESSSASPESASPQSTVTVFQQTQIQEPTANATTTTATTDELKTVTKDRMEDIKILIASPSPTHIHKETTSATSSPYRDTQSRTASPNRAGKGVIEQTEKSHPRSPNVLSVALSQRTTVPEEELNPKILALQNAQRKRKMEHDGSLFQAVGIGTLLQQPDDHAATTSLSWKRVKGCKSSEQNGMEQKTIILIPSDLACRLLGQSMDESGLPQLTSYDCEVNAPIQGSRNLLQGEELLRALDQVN

Molecular target: myc-tagged HPV16 E6 (human papillomavirus 16) (UniProt P03126)
Test: co-IP; HEK 293T cells transfected with or without myc-E6, normoxia or 100 uM CoCl2-induced hypoxia, 48 h after transfection; IP with anti-myc (9E10) or anti-HIF-1α, blot with anti-HIF-1α or anti-myc; lysis in radioimmunoprecipitation buffer, 4 °C overnight

“Hypoxia-inducible factor 1α (HIF-1α), endogenous (from UniProt Q16665 1-826)” was tested. Which binding did it give?
The binding was “binds”.
